# Laboratory results taken from the supplement of paper PMC3682954.
# Where “and” joins values, the source holds several entries; their conditions need not be identical. Identical values can stand only once. Counter-ions that a name gives are not always drawn. ± gives the standard deviation of the averaged measurements. This is one part of the list. Repeats are few or missing, and single values can be far off.
# System: RAW 264.7
# Assay: HMGB1-induced TNF-alpha production relative to HMGB1-stimulated control; higher = more TNF-alpha secretion (less inhibition)
# Conditions: stimulus: HMGB1 5 ug/ml, 18 h
# [1] = compound concentration: 1 ug/ml
SMILES,HMGB1-induced TNF-alpha production (compound concentration: 3 uM),HMGB1-induced TNF-alpha production [1] [%]
CC[C@]1(O)C[C@@H]2CN(CCc3c([nH]c4ccccc34)[C@@](C(=O)OC)(c3cc4c(cc3OC)N(C)[C@H]3[C@@](O)(C(=O)OC)[C@H](OC(C)=O)[C@]5(CC)C=CCN6CC[C@]43[C@@H]65)C2)C1 [Vinblastine],91.8%,–
CC[C@]1(O)C[C@@H]2CN(CCc3c([nH]c4ccccc34)[C@@](C(=O)OC)(c3cc4c(cc3OC)N(C)[C@H]3[C@@](O)(C(=O)OC)[C@H](OC(C)=O)[C@]5(CC)C=CCN6CC[C@]43[C@@H]65)C2)C1,202 ± 77%,–
CC[C@]1(O)C[C@@H]2CN(CCc3c([nH]c4ccccc34)[C@@](C(=O)OC)(c3cc4c(cc3OC)N(C)[C@H]3[C@@](O)(C(=O)OC)[C@H](OC(C)=O)[C@]5(CC)C=CCN6CC[C@]43[C@@H]65)C2)C1 [Vinblastine sulfate salt],128%,–
CC(C)(C)C(O)/C=C/c1ccc2c(c1)OCO2 (configuration not stated) [Stiripentol],97.8%,–
CCN(CCCc1ccccc1)CCCc1ccccc1 [Alverine citrate salt],94.5%,–
CCN(CCCc1ccccc1)CCCc1ccccc1,80.2%,–
CCCCC(CC)COC(=O)c1ccccc1O (configuration not stated),87.7%,–
CC(=O)[C@H]1CC[C@H]2[C@@H]3CC=C4C[C@@H](OC(=O)CCC(=O)O)CC[C@]4(C)[C@H]3CC[C@]12C,73%,–
CC(CCc1ccc(O)cc1)NCC(O)c1ccc(O)cc1 (configuration not stated) [Ractopamine],68.4%,–
O=P(O)(O)C(O)(Cc1cccnc1)P(=O)(O)O,81.9%,–
O=P(O)(O)C(O)(Cc1cccnc1)P(=O)(O)O [Risedronic acid],80.8%,–
N[C@@H](Cc1ccc(F)cc1)C(=O)O [p-Fluoro-L-phenylalanine],68.7%,–
Nc1nccc2c1ncn2[C@@H]1O[C@H](CO)[C@@H](O)[C@H]1O [3-deazaadenosine],85.6%,–
O=C(O)c1cc(O)c(O)c(O)c1,85.2%,–
CCN(CC)C(=O)N1CCN(C)CC1 [Diethylcarbamazine citrate],57%,–
CCN(CC)C(=O)N1CCN(C)CC1,80.8%,–
CCCCC#Cc1nc(NC)c2ncn([C@@H]3O[C@H](CO)[C@@H](O)[C@H]3O)c2n1,94%,–
CC(C)=CCC/C(C)=C/COc1ccc2ccc(=O)oc2c1,91.8%,–
C=CC[N@@+]12CC[C@@]34c5ccccc5N5/C=C6/[C@H]7C[C@H]8[C@@]9(CC[N@@+]8(CC=C)C/C7=C/CO)c7ccccc7N(/C=C(/[C@@H](C[C@@H]31)/C(=C\CO)C2)[C@H]54)[C@@H]69 [Alcuronium chloride],116%,–
COc1cc(CC(=O)O)ccc1O [4-Hydroxy-3-methoxyphenylacetic acid],116%,–
CN1CCC[C@H]1c1cccnc1 [(-)-Nicotine hydrogen tartrate salt],108%,–
CN1CCC[C@H]1c1cccnc1,99.9%,–
CN1CCC[C@H]1c1cccnc1 [Nicotine],–,76.9
CCC1=C[C@H]2CN(C1)Cc1c([nH]c3ccccc13)[C@@](C(=O)OC)(c1cc3c(cc1OC)N(C)[C@H]1[C@@](O)(C(=O)OC)[C@H](OC(C)=O)[C@]4(CC)C=CCN5CC[C@]31[C@@H]54)C2,112%,–
CCCC(C(=O)OCCN(CC)CC)(c1ccccc1)c1ccccc1,90.8%,–
CCCC(C(=O)OCCN(CC)CC)(c1ccccc1)c1ccccc1 [Proadifen hydrochloride],86%,–
CCCC(C(=O)OCCN(CC)CC)(c1ccccc1)c1ccccc1 [SKF-525A hydrochloride],114%,–

SMILES,HMGB1-induced TNF-alpha production (compound concentration: 3 uM),HMGB1-induced TNF-alpha production [1] [%]
Clc1ccc(COC(Cn2ccnc2)c2ccc(Cl)cc2Cl)cc1 (configuration not stated) [Econazole nitrate],64.1%,–
Clc1ccc(COC(Cn2ccnc2)c2ccc(Cl)cc2Cl)cc1 (configuration not stated),70.9%,–
NC(=O)NO [Hydroxyurea],68.9%,–
NC(=O)NO,100 ± 8%,–
Clc1ccccc1C(c1ccccc1)(c1ccccc1)n1ccnc1 [Clotrimazole],67.9 ± 12%,–
Clc1ccccc1C(c1ccccc1)(c1ccccc1)n1ccnc1,72.2 ± 18%,–
CCNc1nc2c(ncn2[C@H]2C[C@H](O)[C@@H](CO)O2)c(=O)[nH]1 [N2-Ethyl-2'-deoxyguanosine],91.4%,–
CO/N=C1\CN(c2nc3c(cc2F)c(=O)c(C(=O)O)cn3C2CC2)CC1CN (configuration not stated),74.7%,–
COc1cc2ccc(=O)oc2cc1OC1OC(COC2OC(C)C(OC(C)=O)C(OC(C)=O)C2OC(C)=O)C(OC(C)=O)C(OC(C)=O)C1OC(C)=O (configuration not stated) [Haploperoside C Acetate],–,69.8
NC(=O)C1(N2CCCCC2)CCN(CCCC(=O)c2ccc(F)cc2)CC1,87.6%,–
CNC1(C)C2CCC(C2)C1(C)C (configuration not stated) [Mecamylamine hydrochloride],112 ± 2.1%,–
CNC1(C)C2CCC(C2)C1(C)C (configuration not stated),92.6%,–
CNC1(C)C2CCC(C2)C1(C)C (configuration not stated) [Mecamylamine],113%,–
CCCCCCCCCCCCCCCC[N+](C)(C)C,68.9%,–
COC1C=COC2(C)Oc3c(C)c(O)c4c(O)c(c(C=O)c(O)c4c3C2=O)NC(=O)C(C)=CC=CC(C)C(O)C(C)C(O)C(C)C(OC(C)=O)C1C (configuration not stated) [3-formyl Rifamycin SV],–,62.9
CC(=C(CCO)SSCC1CCCO1)N(C=O)Cc1cnc(C)nc1N (stereo in doubt) [Fursultiamine Hydrochloride],98.2%,–
C[C@@H]1CC2C3C[C@H](F)C4=CC(=O)C=C[C@]4(C)[C@@]3(F)[C@@H](O)C[C@]2(C)[C@@]1(O)C(=O)COC(=O)C(C)(C)C (some centres not stated),37.6%,–
CCC(C)(CN(C)C)OC(=O)c1ccccc1 (configuration not stated) [Amyleine hydrochloride],57.2%,–
C=C(NC(=O)C(=C)NC(=O)c1csc(C2=N[C@@H]3c4csc(n4)[C@H]4NC(=O)c5csc(n5)[C@H]([C@](C)(O)[C@@H](C)O)NC(=O)[C@H]5CSC(=N5)/C(=C/C)NC(=O)[C@H]([C@@H](C)O)NC(=O)c5csc(n5)[C@]3(CC2)NC(=O)[C@H](C)NC(=O)C(=C)NC(=O)[C@H](C)NC(=O)[C@H]([C@@H](C)CC)N[C@@H]2C=Cc3c([C@H](C)O)cc(nc3[C@H]2O)C(=O)O[C@@H]4C)n1)C(N)=O [Thiostrepton],54.2%,–
Cn1c(=O)c2c(ncn2CC(O)CO)n(C)c1=O (configuration not stated) [Diprophylline],75.7%,–
Cn1c(=O)c2c(ncn2CC(O)CO)n(C)c1=O (configuration not stated),104%,–
CCCc1nc(C(C)(C)O)c(C(=O)OCc2oc(=O)oc2C)n1Cc1ccc(-c2ccccc2-c2nnn[nH]2)cc1,105 ± 3.9%,–
NCCC(=O)N[C@@H](Cc1cnc[nH]1)C(=O)O [L-Carnosine],–,72.6
NC(=O)c1cccnc1 [Nicotinamide],126%,–
NC(=O)c1cccnc1,84.5% and 101%,–
Nc1nccs1,97.8%,–
CC(C)(Oc1ccc(C2CC2(Cl)Cl)cc1)C(=O)O (configuration not stated) [Ciprofibrate],100 ± 38%,–

SMILES,HMGB1-induced TNF-alpha production (compound concentration: 3 uM),HMGB1-induced TNF-alpha production [1] [%]
O=C(O)CCC/C=C\C[C@@H]1[C@@H](/C=C/[C@H](O)C2Cc3ccccc3C2)[C@@H](F)C[C@@H]1O,101%,–
CC1=C(C(=O)O)N2C(=O)[C@@H](NC(=O)[C@H](N)c3ccc(O)cc3)[C@H]2SC1,86%,–
CC1=C(C(=O)O)N2C(=O)[C@@H](NC(=O)[C@H](N)c3ccc(O)cc3)[C@H]2SC1 [Cefadroxil],79.5%,–
"CCCc1cc(=O)oc2cc(O)cc(O)c12 [5,7-Dihydroxy-4-propylcoumarin]",–,107
C=CCN1CCCC1CNC(=O)c1cc2nn[nH]c2cc1OC (configuration not stated) [Alizapride HCl],91.6%,–
CC(CCc1ccc(O)cc1)NCCc1ccc(O)c(O)c1 (configuration not stated) [Dobutamine hydrochloride],55.1 ± 14%,–
CC(CCc1ccc(O)cc1)NCCc1ccc(O)c(O)c1 (configuration not stated) [Dobutamine],61.4%,–
CC(CCc1ccc(O)cc1)NCCc1ccc(O)c(O)c1 (configuration not stated),89.8%,–
Cc1cn([C@H]2C[C@H](O)[C@@H](CO)O2)c(=O)[nH]c1=O [Thymidine],–,72.9
N[C@@H](CCC(=O)N[C@@H](CSN=O)C(=O)NCC(=O)O)C(=O)O [S-Nitrosoglutathione],109%,–
CCOc1nc2cccc(C(=O)OC(C)OC(=O)OC3CCCCC3)c2n1Cc1ccc(-c2ccccc2-c2nn[nH]n2)cc1 (configuration not stated),74.9%,–
O=c1cc(O)cc(/C=C/c2ccc(O)c(O)c2)o1 [Hispidin],93.5%,–
CCN1CCC[C@H]1CNC(=O)c1cc(S(N)(=O)=O)ccc1OC,105%,–
CCN1CCC[C@H]1CNC(=O)c1cc(S(N)(=O)=O)ccc1OC [Sulpiride S (-)],98.6%,–
Nc1ccc(S(N)(=O)=O)cc1,82.4%,–
Nc1ccc(S(N)(=O)=O)cc1 [Sulfanilamide],104%,–
CC1CCN(CCCC(=O)c2ccc(F)cc2)CC1 [Metylperon],95.7%,–
O=c1[nH]c(=O)n([C@H]2C[C@H](O)[C@@H](CO)O2)cc1/C=C/Br [(E)-5-(2-Bromovinyl)-2'-deoxyuridine],71%,79.3
CC(C)N(CCC(=O)c1ccc2ccccc2c1)Cc1ccccc1,60.9%,–
CCC(C)(C)c1ccc(CC(C)CN2C[C@@H](C)O[C@@H](C)C2)cc1 (some centres not stated) [Amorolfine],84.2%,–
COc1ccc(CCN(C)CCCC(C#N)(c2ccc(OC)c(OC)c2)C(C)C)cc1OC (racemic) [(±)-Verapamil hydrochloride],101%,–
CC[C@]12CCCN3CCc4c(n(c5ccccc45)[C@@](O)(C(=O)OC)C1)[C@@H]32,81.4%,–
CC[C@]12CCCN3CCc4c(n(c5ccccc45)[C@@](O)(C(=O)OC)C1)[C@@H]32 [Vincamine],68.1%,61.8
S=P(N1CC1)(N1CC1)N1CC1,87.7 ± 1.5%,–
COc1cc(N)c(Cl)cc1C(=O)NC1CCN(Cc2ccccc2)CC1,82.2%,–
COc1cc(N)c(Cl)cc1C(=O)NC1CCN(Cc2ccccc2)CC1 [Clebopride maleate],62.9%,–
